According to PMC6826410:
These are yes or no findings as the source states them, for the method shown. Binding seen in cells or lysates may run through a third protein. Some binding calls cover weakened binding; strength is not graded here. Sequences can lack the tags named with a protein.

The chains behind the UniProt entries cited, without tags or fusion partners. Where a name states a change or a piece, a line headed by the entry shows the natural chain unless it says otherwise.
UniProt P41217: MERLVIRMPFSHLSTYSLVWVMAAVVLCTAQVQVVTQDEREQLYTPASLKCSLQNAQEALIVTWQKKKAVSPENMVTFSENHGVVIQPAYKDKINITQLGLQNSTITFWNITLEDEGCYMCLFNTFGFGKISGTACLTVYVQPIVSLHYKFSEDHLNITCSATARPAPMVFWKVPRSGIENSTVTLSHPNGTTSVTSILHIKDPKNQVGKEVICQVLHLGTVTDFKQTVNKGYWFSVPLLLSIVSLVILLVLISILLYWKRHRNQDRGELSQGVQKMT
UniProt P35222: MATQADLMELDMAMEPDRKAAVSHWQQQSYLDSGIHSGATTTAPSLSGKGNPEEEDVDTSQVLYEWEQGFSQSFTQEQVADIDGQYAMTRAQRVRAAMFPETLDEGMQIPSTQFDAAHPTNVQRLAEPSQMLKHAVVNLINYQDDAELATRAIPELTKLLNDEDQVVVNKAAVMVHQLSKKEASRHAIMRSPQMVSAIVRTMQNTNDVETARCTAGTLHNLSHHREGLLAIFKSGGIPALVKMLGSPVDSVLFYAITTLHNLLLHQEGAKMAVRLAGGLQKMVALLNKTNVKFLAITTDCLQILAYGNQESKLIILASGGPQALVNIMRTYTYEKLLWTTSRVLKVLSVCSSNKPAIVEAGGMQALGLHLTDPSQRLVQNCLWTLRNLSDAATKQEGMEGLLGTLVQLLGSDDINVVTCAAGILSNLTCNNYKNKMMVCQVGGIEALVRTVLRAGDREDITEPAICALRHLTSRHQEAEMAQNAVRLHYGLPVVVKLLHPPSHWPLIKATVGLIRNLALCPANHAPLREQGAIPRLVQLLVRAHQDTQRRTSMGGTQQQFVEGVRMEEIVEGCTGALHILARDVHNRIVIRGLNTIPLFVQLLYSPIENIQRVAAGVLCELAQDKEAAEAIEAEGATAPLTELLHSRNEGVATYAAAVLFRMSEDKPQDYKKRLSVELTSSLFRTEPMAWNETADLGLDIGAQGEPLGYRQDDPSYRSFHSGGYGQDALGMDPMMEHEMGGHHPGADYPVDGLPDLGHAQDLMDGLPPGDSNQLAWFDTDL

Target: T1, CD200 cytoplasmic domain fused with 3× FLAG tags at the C-terminal (human) (UniProt P41217)
T1 sequence: KRHRNQDRGELSQGVQKMT
Test: co-IP; lysate of UMSCC84 cells transfected with the FLAG-tagged CD200 construct, in IP buffer; precipitated with anti-FLAG M2 agarose beads; Western blot with anti-β-catenin or anti-FLAG

binding: binds
Substance: β-catenin (from UniProt P35222 1-781)
